Test results reported in PubChem BioAssay AID2685 (National Center for Advancing Translational Sciences (NCATS), 2010).
This is one part of the list. Further columns of the screen follow, without active or inactive calls. The list favours compounds with an active or inconclusive main result. Potencies come from curve fits of mixed quality, noted in brackets.

Assay: qHTS Assay for Lipid Storage Modulators in Drosophila S3 Cells;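 on cell number change: cells counted by Cell Tracker Red CMTPX staining in the red channel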
Settings: BODIPY lipid droplet fluorescence, 18-24 h; for cell number change: measured here: cell count max response, cells fed with added oleic acid
Procedure, shortened: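 Drosophila S3 cells got compounds at several concentrations plus oleic acid (400 uM solution). Laser-scanning cytometry with 488 nm excitation read lipid droplets at 500-530 nm and cells at 575-640 nm. Percent activity was relative to 20 uM Triacsin C.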

[1] = measured here: cell number channel AC50, cells fed with added oleic acid
[2] = measured here: lipid fluorescence (Fed channel) AC50, cells fed with added oleic acid

Row | SMILES | cell number change [%] | AC50 [1] | AC50 [2]
1 | Cc1ccc(N2C(N)=C(C#N)C3(C(=O)N(C)c4ccccc43)C3=C2CC(C)(C)CC3=O)cc1Cl (stereo not given) | -7.9 | 6.51 µM [falling, single point] | 0.00731 µM [falling, full curve, poor fit]
2 | CCOC(=O)C1=C(CN2CCN(CCC#N)CC2)NC(=O)NC1c1ccc2c(c1)OCO2 (stereo not given) | 28.3 | 0.82 µM [rising, full curve, poor fit] | 20.6 µM [rising, single point]
3 | CC(C)Cc1csc(NC(=O)C(C)C)c1C(=O)O | 4.27 | – | –
4 | CON1C(=O)C(=O)N(OC)C(C)(C)C1(C)C | -10.9 | 0.206 µM [falling, full curve] | –
5 | COc1cccc(C2=Nc3cccc4cccc(c34)N2)c1 | 44.8 | 29.1 µM [rising, single point] | –
6 | CSc1cccc(CNC(=O)C2CCC(=O)N(Cc3cccc(C(F)(F)F)c3)C2)c1 (stereo not given) | -2.45 | – | 6.51 µM [falling, single point]
7 | COc1cc(Cl)c(C)cc1NC(=O)CCCn1c(=O)oc2ccccc21 | 24.6 | – | –
8 | Cc1ccc(S(=O)(=O)c2c(N)n(/N=C/c3ccco3)c3nc4ccccc4nc23)cc1C | 1.57 | – | 0.58 µM [falling, full curve]
9 | N/C(=N\c1nc2c(c(=O)[nH]1)CCCC2)Nc1ccccc1Sc1ccccc1 | 7.77 | – | 1.3 µM [falling, full curve, poor fit]
10 | CC(C)c1nc(N2CCOCC2)c(C#N)c2c1CCCC2 | -43.6 | 29.1 µM [falling, partial curve] | 32.6 µM [falling, single point]
11 | CCc1ccc(-c2ccc(SCC(=O)NCC3CCCO3)nn2)cc1 (stereo not given) | -0.469 | 0.259 µM [falling, partial curve] | 0.651 µM [falling, single point]
12 | NC(=O)c1ccc(NCC2COc3ccccc3O2)c([N+](=O)[O-])c1 (stereo not given) | – | 0.164 µM [rising, full curve, poor fit] | –
13 | Cn1c(-c2ccc(Cl)nc2)nc2ccccc21 | -29.4 | – | –
14 | O=C(O)c1ccn(CSc2cc(Cl)ccc2Cl)n1 | -1.07 | – | 0.0058 µM [rising, full curve, poor fit]
15 | CC(=O)Nc1ccc(-c2csc(N/N=C\c3ccncc3)n2)cc1 | -1.45 | – | 0.651 µM [rising, single point]
16 | CN1CCCC(OC(=O)c2ccccc2F)C1 (stereo not given) | 21.4 | – | –
17 | CC(C)(C)c1ccc(OCC(=O)Nc2ccncc2)c(Br)c1 | -50 | 13 µM [falling, partial curve] | –
18 | CCCCc1nnc(NC(=O)CSc2nc(=O)cc(N)n2-c2ccccc2)s1 | -30.1 | 3.26 µM [falling, full curve] | 25.9 µM [falling, single point]
19 | CCc1cccc2c(C(=O)CN3C(=O)NC4(CCCCCC4)C3=O)c[nH]c12 | 35.3 | 29.1 µM [rising, single point] | –
20 | CC1CCN(Cc2cc(=O)oc3cc(O)c(Cl)cc23)CC1 | -17 | – | 0.651 µM [falling, single point]
21 | CC1CN(C(=O)CCNC(=O)c2ccc(Cl)cc2)CC(C)O1 (stereo not given) | -1.17 | – | 29.1 µM [rising, single point]
22 | Cc1ccc2[nH]c(C(=O)N/N=C/c3ccc([N+](=O)[O-])cc3)c(C)c2c1 | – | 2.91 µM [rising, single point] | –
23 | O=C(COc1ccc(C(=S)N2CCCC2)cc1)Nc1ccc(F)cc1 | – | – | 0.58 µM [rising, single point]
24 | CCOC(=O)c1ccccc1NC(=O)c1cc2sccc2n1C | – | 6.51 µM [rising, single point] | –
25 | CCC(=O)c1ccc(OCC(=O)OCC(=O)NCCCc2ccccc2)cc1 | 25 | – | 3.26 µM [rising, full curve, poor fit]
26 | Cc1cc(C)n(CCc2nc3c4ccccc4n(CC#N)c(=O)n3n2)n1 | – | 3.26 µM [rising, partial curve] | –
27 | O=C(c1cc(-c2ccccn2)nc2c(Cl)cccc12)N1CCN(C(=O)C2CCCO2)CC1 (stereo not given) | -12.1 | – | –
28 | O=Cc1cn(Cc2ccccc2)nc1-c1cccnc1 | 18.2 | – | 5.17 µM [rising, full curve, poor fit]
29 | O=C(Nc1nnc(-c2ccccc2F)s1)C1CCN(S(=O)(=O)c2ccc(Cl)cc2)CC1 | 7.88 | – | 0.58 µM [rising, full curve, poor fit]
30 | COC(=O)CN(c1c(C)cccc1C)S(C)(=O)=O | -27.4 | – | 2.31 µM [falling, full curve]

Given in markdown: two of the compounds above.

| Row | SMILES | cell number change [%] | AC50 [1] | AC50 [2] |
| --- | --- | --- | --- | --- |
| 15 | CC(=O)Nc1ccc(-c2csc(N/N=C\c3ccncc3)n2)cc1 | -1.45 | – | 0.651 µM [rising, single point] |
| 23 | O=C(COc1ccc(C(=S)N2CCCC2)cc1)Nc1ccc(F)cc1 | – | – | 0.58 µM [rising, single point] |
